From paper PMC4234316
The exact form of at least one protein or probe is not confirmed. Results from cells or extracts need not show a direct contact. For some assays here: Negatives hold for the conditions tested. For some assays here: Protein sequences can lack the tags named with them. For some assays here: Weaker means in comparison with the reference protein, sequence or condition of that experiment.

Chains of the proteins cited; added tags and fusions are not shown. Residues count along the entry.
UniProt P17676, 24-345: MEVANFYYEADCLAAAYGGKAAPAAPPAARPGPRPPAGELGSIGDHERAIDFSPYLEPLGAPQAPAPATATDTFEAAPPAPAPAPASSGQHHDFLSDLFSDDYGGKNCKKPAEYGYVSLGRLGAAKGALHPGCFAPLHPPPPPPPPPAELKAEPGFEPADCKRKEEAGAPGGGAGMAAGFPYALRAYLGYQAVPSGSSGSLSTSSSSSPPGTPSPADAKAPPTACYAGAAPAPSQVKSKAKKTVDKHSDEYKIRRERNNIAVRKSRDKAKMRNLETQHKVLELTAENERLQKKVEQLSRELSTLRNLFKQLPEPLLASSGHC
UniProt P53566, whole entry: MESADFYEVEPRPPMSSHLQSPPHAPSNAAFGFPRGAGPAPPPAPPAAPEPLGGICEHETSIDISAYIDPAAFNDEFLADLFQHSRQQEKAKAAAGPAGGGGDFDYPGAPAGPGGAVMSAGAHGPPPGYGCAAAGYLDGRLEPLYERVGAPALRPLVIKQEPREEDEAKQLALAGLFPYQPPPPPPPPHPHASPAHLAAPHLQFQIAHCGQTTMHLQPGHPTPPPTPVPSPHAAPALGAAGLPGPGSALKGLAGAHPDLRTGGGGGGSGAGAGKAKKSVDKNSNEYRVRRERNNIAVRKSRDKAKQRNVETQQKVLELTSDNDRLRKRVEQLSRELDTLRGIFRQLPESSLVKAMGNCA
UniProt P49716, whole entry, stated change not applied: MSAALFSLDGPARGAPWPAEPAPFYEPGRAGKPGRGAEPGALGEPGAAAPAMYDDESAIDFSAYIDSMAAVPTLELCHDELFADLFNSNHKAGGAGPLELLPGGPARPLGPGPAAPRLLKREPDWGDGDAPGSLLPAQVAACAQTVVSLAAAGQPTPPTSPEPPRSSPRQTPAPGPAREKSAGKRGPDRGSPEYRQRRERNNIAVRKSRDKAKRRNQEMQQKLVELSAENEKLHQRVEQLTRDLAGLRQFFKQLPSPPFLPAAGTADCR

Tests used:
[1] = molecular target: T1, C/EBPδ (cos/δ) (UniProt Q00322); test: EMSA; details: 20 mM Hepes pH 7.9, 40 mM KCl, 10% glycerol, 0.1% NP-40, 0.5 mM EDTA, 1 mM PMSF, 0.5 mM DTT, 1 µg poly(dG-dC), 1 µl FBS, 30 min room temperature; 4% native gel; protein in a lysate after overexpression; label: 32P (Klenow, [α-32P]dCTP)
T1 sequence (looked up, limits assumed): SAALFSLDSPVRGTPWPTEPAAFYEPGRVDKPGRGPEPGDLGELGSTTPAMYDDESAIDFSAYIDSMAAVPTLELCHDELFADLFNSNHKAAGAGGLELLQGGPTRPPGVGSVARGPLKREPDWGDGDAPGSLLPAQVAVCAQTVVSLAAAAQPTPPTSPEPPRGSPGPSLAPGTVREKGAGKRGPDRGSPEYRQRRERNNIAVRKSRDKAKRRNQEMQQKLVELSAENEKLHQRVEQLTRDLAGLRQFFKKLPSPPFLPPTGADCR

[2] = molecular target: C/EBPβ (cos/β) (UniProt P17676); test: EMSA; details: 20 mM Hepes pH 7.9, 40 mM KCl, 10% glycerol, 0.1% NP-40, 0.5 mM EDTA, 1 mM PMSF, 0.5 mM DTT, 1 µg poly(dG-dC), 1 µl FBS, 30 min room temperature; 4% native gel; protein in a lysate after overexpression; label: 32P (Klenow, [α-32P]dCTP)
[3] = molecular target: C/EBPα (cos/α) (UniProt P53566); test: EMSA; details: 20 mM Hepes pH 7.9, 40 mM KCl, 10% glycerol, 0.1% NP-40, 0.5 mM EDTA, 1 mM PMSF, 0.5 mM DTT, 1 µg poly(dG-dC), 1 µl FBS, 30 min room temperature; 4% native gel; protein in a lysate after overexpression; label: 32P (Klenow, [α-32P]dCTP)
[4] = molecular target: T1, C/EBPδ (cos/δ); test: EMSA, supershift; details: 20 mM Hepes pH 7.9, 40 mM KCl, 10% glycerol, 0.1% NP-40, 0.5 mM EDTA, 1 mM PMSF, 0.5 mM DTT, 1 µg poly(dG-dC), 1 µl FBS, 30 min room temperature; 4% native gel; protein in a lysate after overexpression; label: 32P (Klenow, [α-32P]dCTP)
[5] = molecular target: C/EBPβ (endogenous) (human) (UniProt P17676); test: EMSA, supershift; details: 20 mM Hepes pH 7.9, 40 mM KCl, 10% glycerol, 0.1% NP-40, 0.5 mM EDTA, 1 mM PMSF, 0.5 mM DTT, 1 µg poly(dG-dC), 1 µl FBS, 30 min room temperature, 4% native gel, protein in an extract, label: 32P (Klenow, [α-32P]dCTP)
[6] = molecular target: C/EBPβ (cos/β) (UniProt P17676); test: EMSA, supershift; details: 20 mM Hepes pH 7.9, 40 mM KCl, 10% glycerol, 0.1% NP-40, 0.5 mM EDTA, 1 mM PMSF, 0.5 mM DTT, 1 µg poly(dG-dC), 1 µl FBS, 30 min room temperature; 4% native gel; protein in a lysate after overexpression; label: 32P (Klenow, [α-32P]dCTP)
[7] = molecular target: C/EBPδ (endogenous) (human) (UniProt P49716); test: EMSA, supershift; details: 20 mM Hepes pH 7.9, 40 mM KCl, 10% glycerol, 0.1% NP-40, 0.5 mM EDTA, 1 mM PMSF, 0.5 mM DTT, 1 µg poly(dG-dC), 1 µl FBS, 30 min room temperature, 4% native gel, protein in an extract, label: 32P (Klenow, [α-32P]dCTP)
[8] = molecular target: C/EBPα (cos/α) (UniProt P53566); test: EMSA, supershift; details: 20 mM Hepes pH 7.9, 40 mM KCl, 10% glycerol, 0.1% NP-40, 0.5 mM EDTA, 1 mM PMSF, 0.5 mM DTT, 1 µg poly(dG-dC), 1 µl FBS, 30 min room temperature; 4% native gel; protein in a lysate after overexpression; label: 32P (Klenow, [α-32P]dCTP)

Sequence | binding result [1] | binding result [2] | binding result [3] | binding result [4] | binding result ([5]; HEK1 and SCC13 nuclear extracts) | binding result ([5]; HEK1 whole-cell vs nuclear extract) | binding result ([5]; whole-tissue lysates, normal skin and SCC) | binding result [6] | binding result ([7]; HEK1 and SCC13 nuclear extracts, minor binding) | binding result ([7]; whole-tissue lysates, normal skin and SCC, weakly positive) | binding result [8]
CTAGCATCTGCAGAGGTATACCTCTGCAC / TCGAGTGCAGAGGTATACCTCTGCAGATG [Mutant C/EBP consensus] | no binding | no binding | no binding |  |  |  |  |  |  |  | 
CTAGCATCTGCAGATTGCGCAATCTGCAC / TCGAGTGCAGATTGCGCAATCTGCAGATG [C/EBP consensus] |  |  |  | binds | binds | binds | binds | binds | binds more weakly | binds more weakly | binds
